No constants are given. Whether binding was seen depends on the method and setting. For part of these data: Binding seen in cells or lysates may run through a third protein. Some binding calls cover weakened binding; strength is not graded here.
Columns and labels:
GST-ENO1 fusion protein = GST-ENO1 fusion protein (UniProt P06733); assay: pull-down; GST or GST-ENO1 bound to glutathione-Sepharose beads, purified MCL1 added; 50 mM potassium phosphate pH 7.5, 150 mM KCl, 1 mM MgCl2, 10% glycerol, 1% Triton X-100; 4 °C, 2 h; western blot; both purified
[1] = target: Flag-tagged MCL1 (Myeloid Cell Leukemia 1), wild type, full-length (UniProt Q07820); assay: co-IP; anti-Flag (M2) antibody, MCL1 knockout HCT116 p53-/- cells transiently transfected with Flag-tagged MCL1 or empty vector; lysis in 20 mM Tris/HCl pH 7.4, 150 mM NaCl, 2 mM EDTA, 10% glycerol, 1% Triton X-100; 4 °C; ENO1 under CIS condition
[2] = target: Flag-tagged MCL1 (Myeloid Cell Leukemia 1), wild type, full-length (UniProt Q07820); assay: co-IP; anti-MCL1 antibody, MCL1 CRISPR HCT116 p53-/- cells transiently transfected with wild type or mutant MCL1; blots for CaM and ENO1

Protein sequences, listed by entry. Tags and fused reporters are not part of them.
UniProt P06733: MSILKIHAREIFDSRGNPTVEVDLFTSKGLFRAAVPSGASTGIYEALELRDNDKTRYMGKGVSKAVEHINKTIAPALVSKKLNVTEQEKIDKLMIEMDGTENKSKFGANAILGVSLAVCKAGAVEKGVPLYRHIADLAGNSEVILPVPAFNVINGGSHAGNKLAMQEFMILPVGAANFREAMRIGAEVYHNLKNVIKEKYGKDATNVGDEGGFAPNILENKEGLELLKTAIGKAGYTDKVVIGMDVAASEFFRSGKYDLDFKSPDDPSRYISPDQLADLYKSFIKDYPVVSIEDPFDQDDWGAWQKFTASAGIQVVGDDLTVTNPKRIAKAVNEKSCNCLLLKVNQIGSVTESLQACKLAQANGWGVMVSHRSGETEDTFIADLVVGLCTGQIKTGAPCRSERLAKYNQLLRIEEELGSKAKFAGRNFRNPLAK
UniProt Q07820: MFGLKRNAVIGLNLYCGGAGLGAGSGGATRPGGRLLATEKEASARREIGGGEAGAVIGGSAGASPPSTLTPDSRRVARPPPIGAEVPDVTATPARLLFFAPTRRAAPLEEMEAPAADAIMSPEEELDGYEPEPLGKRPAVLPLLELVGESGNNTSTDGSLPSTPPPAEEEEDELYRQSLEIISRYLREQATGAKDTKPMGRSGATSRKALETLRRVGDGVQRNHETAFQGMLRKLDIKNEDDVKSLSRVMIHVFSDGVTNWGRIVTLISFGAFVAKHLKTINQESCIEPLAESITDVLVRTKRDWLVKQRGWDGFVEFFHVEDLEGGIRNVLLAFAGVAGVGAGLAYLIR

Flag-tagged MCL1 (Myeloid Cell Leukemia 1), wild type, full-length (from UniProt Q07820 1-350)
binding (GST-ENO1 fusion protein): binds

alpha-enolase (from UniProt P06733 1-434) (enzyme)
binding [1]: binds | binding [2]: binds
